Among the data in article doi:10.1101/869172 are binding values, retold here.

Like-named read-outs stand apart in the source and are kept apart here. Results are given in words; binding and its absence hold for the method and conditions named. Binding seen in cells or lysates may run through a third protein. Here binding means that the protein was enriched with, or labelled near, the bait; the list need not be complete. For some of these results: A no says only that the protein was not detected with the bait. Tags and fused reporters may be left off the sequences shown.

What all share (test): affinity purification with mass spectrometry
Experiment [1] concerns the target T1, TtAgo (Thermus thermophilus Argonaute, TT_P0026) (T. thermophilus (endogenous in strain HB27)) (UniProt Q746M7).
T1 sequence: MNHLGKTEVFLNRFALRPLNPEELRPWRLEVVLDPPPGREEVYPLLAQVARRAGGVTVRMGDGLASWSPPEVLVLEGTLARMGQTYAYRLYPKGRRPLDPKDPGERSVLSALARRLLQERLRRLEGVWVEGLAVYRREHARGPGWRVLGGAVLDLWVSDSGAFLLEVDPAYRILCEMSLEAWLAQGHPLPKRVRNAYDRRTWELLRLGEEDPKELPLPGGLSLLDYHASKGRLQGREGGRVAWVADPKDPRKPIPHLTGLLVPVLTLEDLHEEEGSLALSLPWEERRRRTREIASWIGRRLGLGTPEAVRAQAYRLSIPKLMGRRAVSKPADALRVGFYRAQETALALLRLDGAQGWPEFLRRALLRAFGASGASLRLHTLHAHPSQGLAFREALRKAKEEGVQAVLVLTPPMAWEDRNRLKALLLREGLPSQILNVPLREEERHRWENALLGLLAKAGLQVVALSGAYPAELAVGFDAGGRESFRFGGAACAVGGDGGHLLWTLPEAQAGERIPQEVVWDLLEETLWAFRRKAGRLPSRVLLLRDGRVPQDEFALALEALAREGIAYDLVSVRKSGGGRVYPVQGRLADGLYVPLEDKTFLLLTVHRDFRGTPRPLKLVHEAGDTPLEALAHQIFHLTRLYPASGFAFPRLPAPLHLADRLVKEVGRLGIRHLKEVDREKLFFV

Experiment [2] concerns the target T1, TtAgo (Thermus thermophilus Argonaute, TT_P0026) (T. thermophilus (endogenous in strain HB27)). This is another data set of the same source.
Experiment [3] deals with T2, TtAgo^D478A,D546A (catalytically inactive double point-mutant TtAgo) (T. thermophilus (endogenous in strain HB27)) (UniProt Q746M7).
T2 sequence: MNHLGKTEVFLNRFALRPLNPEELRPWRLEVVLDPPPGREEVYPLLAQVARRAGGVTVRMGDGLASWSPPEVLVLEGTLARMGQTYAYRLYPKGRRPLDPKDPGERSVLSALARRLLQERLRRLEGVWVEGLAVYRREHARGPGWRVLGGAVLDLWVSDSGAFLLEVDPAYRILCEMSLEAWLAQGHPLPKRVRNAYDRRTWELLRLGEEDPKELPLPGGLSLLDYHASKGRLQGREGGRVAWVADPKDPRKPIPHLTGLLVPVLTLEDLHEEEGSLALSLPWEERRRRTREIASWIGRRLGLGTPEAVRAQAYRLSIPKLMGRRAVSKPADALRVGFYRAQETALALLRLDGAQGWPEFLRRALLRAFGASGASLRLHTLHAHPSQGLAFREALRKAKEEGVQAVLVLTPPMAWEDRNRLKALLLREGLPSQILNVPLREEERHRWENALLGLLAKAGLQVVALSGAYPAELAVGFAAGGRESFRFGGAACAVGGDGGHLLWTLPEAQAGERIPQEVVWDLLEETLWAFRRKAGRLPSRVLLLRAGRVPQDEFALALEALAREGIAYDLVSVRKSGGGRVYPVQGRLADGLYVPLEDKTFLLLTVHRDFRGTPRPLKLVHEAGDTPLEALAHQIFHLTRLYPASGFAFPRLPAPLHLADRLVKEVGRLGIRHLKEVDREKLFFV

Turning to AddA, the binding result is listed as “binds” in experiment [1], “binds” in experiment [2] and “no binding” in experiment [3]. For AddB, the results for the binding entry in experiment [1], in experiment [2] and in experiment [3] were “binds”, “binds” and “no binding”, respectively. In the case of FtsE, the binding result in experiment [2] is recorded as “binds”. In the case of “GyrB (from UniProt Q5SHZ4 1-634) (enzyme)”, the binding entry in experiment [2] is “binds”. For the molecule PolA (from UniProt Q72JS8) (enzyme), the binding entry in experiment [2] is on record as “binds”. On the same count and under the same terms, next, PriA (from UniProt Q72GA6): “binds”.

Consider Rad52, for which the binding entry in experiment [2] is “binds”.

As to “RecJ (from UniProt Q5SJ47 1-666) (enzyme)”, the binding result in experiment [2] is listed as “binds”. Same read-out and setting: next, RepA: “binds”; Topol (from UniProt Q72GB7) (enzyme): “binds”. For histone-like protein HU, in experiment [2], the binding entry is recorded as “binds”.

For the molecule ssDNA-binding protein SSB, the binding entry in experiment [2] was “binds”.

B1: UvrB (protein, UniProt Q56243 1-665)
chain: MTFRYRGPSPKGDQPKAIAGLVEALRDGERFVTLLGATGTGKTVTMAKVIEALGRPALVLAPNKILAAQLAAEFRELFPENAVEYFISYYDYYQPEAYVPGKDLYIEKDASINPEIERLRHSTTRSLLTRRDVIVVASVSAIYGLGDPREYRARNLVVERGKPYPREVLLERLLELGYQRNDIDLSPGRFRAKGEVLEIFPAYETEPIRVELFGDEVERISQVHPVTGERLRELPGFVLFPATHYLSPEGLEEILKEIEKELWERVRYFEERGEVLYAQRLKERTLYDLEMLRVMGTCPGVENYARYFTGKAPGEPPYTLLDYFPEDFLVFLDESHVTVPQLQGMYRGDYARKKTLVDYGFRLPSALDNRPLRFEEFLERVSQVVFVSATPGPFELAHSGRVVEQIIRPTGLLDPLVRVKPTENQILDLMEGIRERAARGERTLVTVLTVRMAEELTSFLVEHGIRARYLHHELDAFERQALIRDLRLGHYDCLVGINLLREGLDIPEVSLVAILDADKEGFLRSERSLIQTIGRAARNARGEVWLYADRVSEAMQRAIEETNRRRALQEAYNLEHGITPETVRKEVRAVIRPEGYEEAPLEADLSGEDLRERIAELELAMWQAAEALDFERAARLRDEIRALEARLQGVRAPEPVPGGRKRKRR
As to B1, in experiment [2], the binding entry is on record as “binds”.

B2: GyrA (enzyme, UniProt Q5SIL4 1-805)
chain: MAQVLPVEITEELKQSFINYAMSVIVDRALPDVRDGLKPVQRRILFGAYQEGVLPGRKHVKSAKIVGEVMGKYHPHGDAAIYDALVRMAQPWNLRYPLIDGQGNFGSIDGDPPAAQRYTEARLSPIGAEMLLDIDKDTVDFRPNYDGSLKEPEVLPAAIPNLLVNGASGIAVGMATSLPPHNLSEVVDALVAMIENPAITLEEVMRHLPGPDFPTGGKLSKKGIKEAYATGRGSLKVRAKVRVEEKGQRPVLVVTEIPYQVNKASLIAQIAALVKAKKIEDIVGLRDESDRQGLRIAIELKRGANPQVVLNQLYKHTALQTSFTVNLLAIVDGEPKVLSLLDLMRHYLDHRKEVVRRRSLFELRKAEERAHVLEGLLIALDHIDEVIALIRGSEDAPKARIALMERFGLSEAQAQAILDMRLQRLVALEREKLLEEYRGLMEEIARLKAILEDEARLLAEVKADLLRVKEKYGDARRTLITEFEETFNPEDLIEDEPMVITLTAQGFLKRLPLESYRAQGRGGKGLLAGRTKEEDEATHVFVADAHDDLLLFTNRGRVYRLKVYELPEMGRQARGVHVKSLLPLAEDEEVAALLSVRGLDQEGYLVFATERGLVKRTALKEYQNLGQAGLIAIRLQEGDRLVGVALSDPEDEAILATQEGQAIRFPLEEVRATGRDTQGVIGVRFKKPEDRVVSLVVVKPGEMVDLLSVSTRGYGKRTPLSEYPLQGRGGMGVITYAVSTKVGRLAALLKVRGGEDLLVLSRRGLAIRTPVAEIRQYSRATAGVRVMNLPEDDEVASAFVVEEEK
In the case of B2, in experiment [2], the binding result is listed as “binds”.

B3: ArgR (XerA) (protein, UniProt Q5SI21 1-164)
chain: MGNKAERHRAIQEIVRREEIGTQKELVERLRQLGFEVTQATVSRDIAELGLARIALGKGRHRYVLPAADLPENAYEELKRQFGLFVRDVDRGGNLLVVKTAEGHASGIAYLLDRLRRDEIVGTLAGDDTILVVARTEEAAQALEDEFAGLLVEGRALRRALSGS
As for B3, the binding entry in experiment [2] was “binds”.
